## Results of single-concentration screens

Sequences of proteins named here, by UniProt entry; tags and fusion partners are left off. Residues count along the entry.
UniProt Q4DA54, 1-478: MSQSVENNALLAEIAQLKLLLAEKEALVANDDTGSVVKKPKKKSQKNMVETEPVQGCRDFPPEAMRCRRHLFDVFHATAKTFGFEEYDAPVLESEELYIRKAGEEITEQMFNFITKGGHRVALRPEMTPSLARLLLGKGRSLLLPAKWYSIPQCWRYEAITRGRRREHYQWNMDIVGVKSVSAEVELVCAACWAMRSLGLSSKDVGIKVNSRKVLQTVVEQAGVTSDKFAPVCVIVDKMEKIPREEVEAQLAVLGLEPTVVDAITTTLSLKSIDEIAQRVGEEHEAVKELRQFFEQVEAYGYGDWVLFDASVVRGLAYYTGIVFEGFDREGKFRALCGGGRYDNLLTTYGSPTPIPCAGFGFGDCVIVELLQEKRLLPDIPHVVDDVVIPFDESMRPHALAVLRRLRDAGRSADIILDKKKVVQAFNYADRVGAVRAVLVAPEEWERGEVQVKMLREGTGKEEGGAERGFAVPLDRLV

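Histidine-tRNA ligase, Trypanosoma cruzi CL Brener (UniProt Q4DA54). Enzyme assay of histidyl-tRNA synthetase; the read-out is not stated. Concentration: 30 µM. The record gives no direction; compounds that gave an IC50 in retests scored well above the rest, so higher reads as stronger inhibition. Size under these conditions: about 69,000 compounds, about 31 of them at 50% or above in at least one test.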

Results are given as percent effect.
How 0% and 100% were set is not recorded. Most values in the screen are low, and negative values occur.
Compounds were drawn at random from those tested, without regard to their results.

structure | effect
C[S+]([O-])c1nncn1CC(=O)c1cccc(C(F)(F)F)c1 (stereo not shown) | 2.326
NC(=O)c1ccc(N2CCCCC2)c(NC(=O)c2ccc(F)cc2F)c1 | 10.12
CCOc1nnc(CN(CC)CC(=O)NC(C)(C)C)s1 | 11.11
O=C(NCC1(CO)CC1)c1ccccc1C(F)(F)F | 4.082
Cc1cnc(C(=O)N(C)[C@@H]2CCC[C@@H](Oc3ccccc3)[C@@H]2O)cn1 | 4.478
Cc1ncsc1C(=O)N(C)Cc1cccnc1 | 2.053
Cc1nc(C(C)C)sc1C(=O)NS(=O)(=O)c1ccc(C#N)cc1 | -0.8333
Cc1nc2c(c(=O)[nH]1)CN(C(=O)CC[C@@H]1CCCN3CCCC[C@H]13)C2 | 1.786
CN(CCN1CCCC1)c1nccc(N2CCN[C@H]3CS(=O)(=O)C[C@H]32)n1 | 1.948
Fc1ccccc1CN1C[C@@H](OCc2ccncc2)[C@H]2OCCC[C@H]21 | 1.674
Cc1ccc(C(=O)N2CCC3(CCC(=O)N(C(C)C)C3)CC2)c(O)c1 | -1.339
Cc1ccc(OCC(=O)NCC(F)(F)F)nc1 | -1.02
CCC(CO)N(Cc1ccsc1)Cc1ccc(-c2ccn[nH]2)s1 (stereo not shown) | 4.712
O=C(NCC1CC1)c1cc(Cl)c2c(c1)OCCCO2 | 2.326
CC(=O)Nc1ncc(S(=O)(=O)Nc2cccc(F)c2)s1 | 5.217
O=C1N(CC2CCC2)CCCC12CCN(S(=O)(=O)c1cccnc1)C2 (stereo not shown) | 4.972
O=C(COC1CCCCC1)N1CCCC(n2ccnc2)C1 (stereo not shown) | 3.704
Cc1cnc(-c2nc(C3CCCN(Cc4ccccc4C)C3)no2)cn1 (stereo not shown) | 3.448
Cc1csc(N2CCCN(C(=O)c3nccnc3N)CC2)n1 | 8.374
Cc1cn(CCn2ccnc2-c2sccc2C)nn1 | 7.778
CN(Cc1cnn(C)c1)C(=O)NCc1cc(Br)cs1 | 4.956
CN(CCO)C[C@@H]1CN(Cc2ccccc2-c2ccccc2)C[C@@H]1CO | 7.027
CN(C)c1nccc(NCc2cc(-c3cccs3)n[nH]2)n1 | -3.39
COc1ccccc1-c1ccc(C2CCCN(C(C)=O)C2)nc1 (stereo not shown) | 8.046
N#Cc1ccc(C(=O)N2CCC(Oc3ccc(C#N)cn3)CC2)cc1 | 7.143
Cc1ccc(CN2CC[C@H](c3nc4cccc(C(N)=O)c4[nH]3)C2)cc1 | -6.468
OCCN1CCN(Cc2coc(-c3ccccc3Cl)n2)CC1 | 11.11
CC[C@H](C)[C@H](NC(=O)c1cccc(-n2cnnn2)c1)C(=O)OC | 4.95
Cc1csc(CCCNC(C)CC(=O)Nc2ccc(F)cc2)n1 (stereo not shown) | 1.667
O=S(=O)(c1c(N2CCCC2)ccc2nonc12)N1CCCC1 | -0.9901
Cc1ccc(C(=O)N2CC[C@H]3O[C@@H](c4noc(C)n4)C[C@H]3C2)o1 | -2.97
CNC(=O)[C@H]1C[C@H]2OCC[C@H]2N(Cc2ccc(F)cc2)C1 | 7.527
O=C(NCC(O)c1cccc(F)c1)c1cccnc1O (stereo not shown) | -1.653
CC(C)Nc1cccc(CNC(=O)N2CCC[C@@H]2CO)c1 | 6.897
Cn1cc(CNC2CCc3c(ccc(=O)n3Cc3ccncc3)C2)cn1 (stereo not shown) | -0.5025
CCOCC1CN(CC2CC2)Cc2nn(CC3CC3)cc21 (stereo not shown) | -1.22
COCCCNS(=O)(=O)c1ccc2c(c1)NC(=O)C(C)O2 (stereo not shown) | 8.527
Cc1nccc([C@@H]2C[C@@H]3CCN(Cc4cccs4)C[C@H]3O2)n1 | 12.02
Cc1cc2ncn(C(=O)N3CCOCC3)c2cc1C | 3.101
CC(CNCc1ccc2c(c1)n(C)c(=O)n2C)Oc1ccccn1 (stereo not shown) | 2.924
CN(C)CCOc1ccc(CNC(=O)c2cccc3[nH]ncc23)cc1 | 0
NCc1ccnc(Oc2ccccc2)c1 | 25.37
CC(C)NC(=O)NCc1cc(-c2ccco2)n(CC(F)(F)F)n1 | 6.78
O=C1CC(c2ncc(-c3ccc4c(c3)OCCO4)[nH]2)CN1C1CC1 (stereo not shown) | 5.155
O=C(c1cccnc1)N1CCn2cc(CN3CCCC3)nc2C1 | 1.961
CC(C)N1CCC(c2nccnc2Nc2ncccn2)CC1 | 0

For reference, 5 entries once more:

{"structure": "O=S(=O)(c1c(N2CCCC2)ccc2nonc12)N1CCCC1", "effect": -0.9901}
{"structure": "CN(Cc1cnn(C)c1)C(=O)NCc1cc(Br)cs1", "effect": 4.956}
{"structure": "CN(C)c1nccc(NCc2cc(-c3cccs3)n[nH]2)n1", "effect": -3.39}
{"structure": "Cc1nc2c(c(=O)[nH]1)CN(C(=O)CC[C@@H]1CCCN3CCCC[C@H]13)C2", "effect": 1.786}
{"structure": "CN(CCN1CCCC1)c1nccc(N2CCN[C@H]3CS(=O)(=O)C[C@H]32)n1", "effect": 1.948}

The values are deposited in ChEMBL (CHEMBL3988442, “University of Dundee, Small-Polar-MMV Screening Library” (2021)).